From publication PMC7683537
No constants are given. Whether binding was seen depends on the method and setting. In cells and extracts the contact can be indirect. Here binding means that the protein was enriched with, or labelled near, the bait; the list need not be complete.

Protein sequences, listed by entry. Tags and fused reporters are not part of them.
UniProt P28033: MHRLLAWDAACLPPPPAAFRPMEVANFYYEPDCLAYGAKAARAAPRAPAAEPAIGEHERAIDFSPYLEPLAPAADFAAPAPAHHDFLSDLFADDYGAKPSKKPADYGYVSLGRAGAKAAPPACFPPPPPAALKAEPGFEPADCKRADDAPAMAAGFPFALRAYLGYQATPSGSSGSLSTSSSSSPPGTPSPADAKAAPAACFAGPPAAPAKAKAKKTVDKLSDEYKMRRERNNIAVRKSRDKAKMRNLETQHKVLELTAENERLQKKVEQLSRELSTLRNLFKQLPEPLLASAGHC
UniProt Q9CWW7: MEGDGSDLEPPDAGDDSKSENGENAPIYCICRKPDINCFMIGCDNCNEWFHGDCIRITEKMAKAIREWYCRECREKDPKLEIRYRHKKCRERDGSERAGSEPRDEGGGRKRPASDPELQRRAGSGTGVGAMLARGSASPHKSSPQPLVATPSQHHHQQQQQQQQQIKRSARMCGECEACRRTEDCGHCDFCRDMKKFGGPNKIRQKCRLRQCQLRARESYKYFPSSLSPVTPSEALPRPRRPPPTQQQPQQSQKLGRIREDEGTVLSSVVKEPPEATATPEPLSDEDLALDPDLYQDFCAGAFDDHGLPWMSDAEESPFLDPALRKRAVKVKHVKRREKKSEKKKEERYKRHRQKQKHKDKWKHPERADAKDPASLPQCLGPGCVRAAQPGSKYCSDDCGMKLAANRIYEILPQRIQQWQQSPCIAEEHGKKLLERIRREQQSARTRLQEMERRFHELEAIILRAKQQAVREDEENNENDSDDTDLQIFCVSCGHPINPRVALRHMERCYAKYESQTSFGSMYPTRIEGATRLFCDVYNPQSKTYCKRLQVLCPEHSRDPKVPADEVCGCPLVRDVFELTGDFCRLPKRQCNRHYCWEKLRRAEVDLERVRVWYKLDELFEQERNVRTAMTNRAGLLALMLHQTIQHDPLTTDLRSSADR
UniProt Q9CQJ4: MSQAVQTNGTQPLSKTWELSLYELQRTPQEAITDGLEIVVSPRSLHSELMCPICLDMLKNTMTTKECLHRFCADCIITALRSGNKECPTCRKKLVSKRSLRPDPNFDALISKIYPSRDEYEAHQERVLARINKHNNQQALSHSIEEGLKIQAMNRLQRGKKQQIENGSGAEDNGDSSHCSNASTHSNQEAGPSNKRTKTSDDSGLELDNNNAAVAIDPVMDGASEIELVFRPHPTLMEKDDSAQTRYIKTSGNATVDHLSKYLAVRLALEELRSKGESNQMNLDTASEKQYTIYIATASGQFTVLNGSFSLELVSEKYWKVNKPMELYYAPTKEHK
UniProt Q91X20: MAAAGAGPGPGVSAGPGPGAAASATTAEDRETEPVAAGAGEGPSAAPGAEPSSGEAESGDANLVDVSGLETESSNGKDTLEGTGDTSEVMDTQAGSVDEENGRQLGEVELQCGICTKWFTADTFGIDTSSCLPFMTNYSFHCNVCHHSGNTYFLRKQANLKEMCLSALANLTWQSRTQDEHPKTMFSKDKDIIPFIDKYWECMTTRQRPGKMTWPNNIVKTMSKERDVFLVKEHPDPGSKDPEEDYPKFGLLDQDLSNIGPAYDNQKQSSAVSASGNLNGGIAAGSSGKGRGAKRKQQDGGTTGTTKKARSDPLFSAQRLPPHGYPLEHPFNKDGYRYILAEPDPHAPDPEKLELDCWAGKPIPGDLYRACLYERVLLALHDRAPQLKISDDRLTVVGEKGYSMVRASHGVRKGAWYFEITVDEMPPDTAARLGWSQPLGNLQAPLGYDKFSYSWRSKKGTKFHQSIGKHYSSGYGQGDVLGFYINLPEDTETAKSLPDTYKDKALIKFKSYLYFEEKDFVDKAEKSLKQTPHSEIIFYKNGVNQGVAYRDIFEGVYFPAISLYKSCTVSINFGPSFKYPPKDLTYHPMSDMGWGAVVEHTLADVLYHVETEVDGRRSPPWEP

Molecular target: CCAAT/enhancer binding protein β (C/EBPβ) (mouse (endogenous in BMDMs)) (UniProt P28033)
Assay: affinity purification with mass spectrometry; IP with anti-C/EBPβ antibody from BMDM lysate (IP lysis buffer, Pierce), protein A/G magnetic beads, SDS-PAGE, silver staining, LC-MS/MS

Row | Substance | binding
1 | CXXC1 (from UniProt Q9CWW7 1-660) | binds
2 | RNF2 (from UniProt Q9CQJ4 1-336) | binds
3 | absent, small, or homeotic 2-like protein (ASH2L) (from UniProt Q91X20 1-623) | binds
